Article PMC12431653
Results are given in words; binding and its absence hold for the method and conditions named. Binding seen in cells or lysates may run through a third protein. A yes stands for co-enrichment or nearness to the bait. Other partners may have been found.

Molecular target: chicken interferon-related antiviral protein (chIRAP) (chicken)
Test: affinity purification with mass spectrometry; Co-IP to retrieve chIRAP interacting proteins, analysed by label-free mass spectrometry

binding: binds
B1: chicken peroxiredoxin 1 (chPRDX1) (protein, UniProt P0CB50 1-199)
chain: MSSGKAFIGKPAPDFTATAVMPDGQFKDIKLSDYRGKYVVFFFYPLDFTFVCPTEIIAYSDRADEFKKINCEIIGASVDSHFCHLAWINTPKKQGGLGTMKIPLVSDTKRVIAKDYGVLKEDEGIAYRGLFIIDEKGILRQITINDLPVGRSVDETLRLVQAFQFTDKHGEVCPAGWKPGSDTIKPDVQKSKEYFSKQK
